Source: article PMC10542451
Results are given in words; binding and its absence hold for the method and conditions named. Binding seen in cells or lysates may run through a third protein. Some results given as binding are weak or reduced against the parent protein; the word gives no strength.

Target: PADI3α (mouse peptidylarginine deiminase 3, canonical isoform) (mouse) (UniProt Q9Z184)
Assay: co-IP; triple transfection of PADI3α-HA, PADI3α-Flag and PADI3β-His into HEK293 cells, harvested 48 h after transfection, RIPA lysate; precipitated with anti-HA-tag magnetic beads or Dynabeads His-tag Isolation and pulldown; blotted for Flag

binding: binds
B1: PADI3α (mouse peptidylarginine deiminase 3, canonical isoform) (enzyme, UniProt Q9Z184 1-664)
chain: MSLQRIVRVSLEHPTSAVCVAGVETIVDIYGAVPEGTDMFEVYGTPGVDIYVSPSMERSRERADTRRWCFNKGLEIIVIMNSPSNDLNDSHVQIAYHSSREHLPLAYAVLYLTCVDITLDCDMNCADRQDRSFVDKRQWVWGPDGYGAILLVNCDRDNVDSNAQDNCDQYVRCLQDLEDMSVMVLRTQGPEALFEDHRLILHTSSCDAERARVFHVCGPEDSCESYKCVLGPDRMSYEVPRLKGYEERFFVEGLSFPDAGFPGLISFHVTLLDDSNEDFSETPIFTDTAVFRVAPWIMTPSTLPPLEVYVCRVRNNTCFVEAVEELARKAGCKLTICPQAENRNDRWIQDEMELGYVQAPHKTLPVVFDSPRNGELQGFPYKRILGLDFGYVTREPKDSSVSGLDSFGNLEVSPPVVANGKEYPLGRILIGGNLPGSRGRRVTQVVRNFLHAQKVQPLVELFVDWLAVGHVDEFLSFVPAPDGKGFRLLLASPGACFRLFQEKQKWGHGRSLLFEGVIGDRRVQTVSINQILNNQSLINFNKFAQSCIDWNREVLKRELGLAEGDIIDIPQLFKTEKRKAVAFFPDLVNMLVLGKHLGIPKPFGPIINGRCCLEEKVRSLLEPLGLHCTFIDDFTPYHMLHGEVHCGTNVRREPFAFKWWHMVP
